Data taken from paper PMC9788671.
These are yes or no findings as the source states them, for the method shown. Binding seen in cells or lysates may run through a third protein. Here binding means that the protein was enriched with, or labelled near, the bait; the list need not be complete.

The chains behind the UniProt entries cited, without tags or fusion partners.
UniProt Q9NZV8: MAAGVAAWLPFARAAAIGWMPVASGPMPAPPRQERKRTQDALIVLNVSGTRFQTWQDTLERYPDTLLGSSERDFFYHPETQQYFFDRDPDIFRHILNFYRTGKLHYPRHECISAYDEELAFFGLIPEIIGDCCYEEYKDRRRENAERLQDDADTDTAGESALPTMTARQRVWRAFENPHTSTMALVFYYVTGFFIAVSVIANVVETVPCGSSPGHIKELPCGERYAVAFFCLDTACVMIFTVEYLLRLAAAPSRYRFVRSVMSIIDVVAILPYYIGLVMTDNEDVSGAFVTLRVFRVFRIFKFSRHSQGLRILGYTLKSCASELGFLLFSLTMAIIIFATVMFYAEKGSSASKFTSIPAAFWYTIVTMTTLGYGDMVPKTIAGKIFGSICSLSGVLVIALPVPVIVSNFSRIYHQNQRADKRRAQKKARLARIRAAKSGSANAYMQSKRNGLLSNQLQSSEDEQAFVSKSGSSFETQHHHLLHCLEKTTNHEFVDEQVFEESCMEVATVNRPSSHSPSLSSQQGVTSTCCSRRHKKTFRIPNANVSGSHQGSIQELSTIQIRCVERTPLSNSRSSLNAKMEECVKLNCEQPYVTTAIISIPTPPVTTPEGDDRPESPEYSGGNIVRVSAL

Key:
TAP-Kv4.2 (human) [1] = target: TAP-Kv4.2 (human) (UniProt Q9NZV8); test: affinity purification with mass spectrometry; TAP-Kv4.2 expressed by lentivirus in rat hippocampal neurons, harvested at DIV14; weak lysis buffer of the kit (0.1% NP-40); streptavidin resin, then calmodulin resin; gel cut into high and low molecular weight fragments; no MS of the control sample
TAP-Kv4.2 (human) [2] = target: TAP-Kv4.2 (human) (UniProt Q9NZV8); test: affinity purification with mass spectrometry; TAP-Kv4.2 expressed by lentivirus in rat hippocampal neurons, harvested at DIV14; strong lysis buffer (1% Triton X-100, 0.5% deoxycholate in PBS, pH 7.4); streptavidin resin, then calmodulin resin; gel cut into high and low molecular weight fragments; no MS of the control sample

Row | binding (TAP-Kv4.2 (human) [1]) | binding (TAP-Kv4.2 (human) [2]) | Binder
1 | binds | binds | Lppr4 (protein, UniProt Q7TMB7 1-766) MQRAGSSGARGECDISGTGRLRLEQAARLGGRAVHTSPTGGLGARQVAGMSAKERPKGKVIKDSVTLLPCFYFVELPILASSVVSLYFLELTDVFKPVHSGFSCYDRSLSMPYIEPTQEAIPFLMLLSLAFAGPAITIMVGEGILYCCLSKRRNGAGLEPNINAGGCNFNSFLRRAVRFVGVHVVGLCSTALITDIIQLATGYQAPYFLTVCKPMYTSLEGSCKENSYIVEEICSGSDLTVINNGKKSFPSQHATLAAFAAVYVSMYFNSTLTDSSKLLKPLLVFTFIICGIICGLTRITQYKNHPVDVYCGFLIGGGIALYLGLYAVGNFLPSEDSMLQHRDALRSLTDLNQDPSRVLSAKNGSSGDGIAHTEGILNRNHRDASSLTNLKRANADVEIITPRSPMGKESMVTFSNTLPRANTPSVEDPVRRNASIHASMDSARSKQLLTQWKSKNESRKMSLQVMDSEPEGQSPPRSIEMRSSSEPSRVGVNGDHHVPGNQYLKIQPGTVPGCNNSMPAGPRVSIQSRPGSSQLVHIPEETQENISTSPKSSSARAKWLKAAEKTVACNRGNNQPRIMQVIAMSKQQGVLQSSPKNAEGSTVTCTGSIRYKTLTDHEPSGIVRVEAHPENNRPIIQIPSSTEGEGSGSWKWKAPEKSSLRQTYELNDLNRDSESCESLKDSFGSGDRKRKHIDSNEHHHHGITTIRVTPVEGSEIGSETLSVSSSRDSTLRRKGNIILIPERSNSPENTRNIFYKGTSPTRPYKD
2 | binds | binds | Matr3 (protein, UniProt P43244 1-845) MSKSFQQSSLGRDSQGHGRDLSAAGIGLLAAATQSLSMPASLGRMNQGTARLASLMNLGMSSSLNQQGAHSALSSASTSSHNLQSIFNIGSRGPLPLSSQHRGDTDQASNILASFGLSARDLDELSRYPEDKITPENLPQILLQLKRRRTEEGPTLSYGRDGRSATREPPYRVPRDDWEEKRHFRRDSFDDRGPSLNPVLDYDHGSRSQESGYYDRMDYEDDRLRDGERCRDDSFFGETSHNYHKFDSEYERMGRGPGPLQERSLFEKKRGAPPSSNIEDFHGLLPKGYPHLCSICDLPVHSNKEWSQHINGASHSRRCQLLLEIYPEWNPDNDTGHTMGDPFMLQQSTNPAPGILGPPPPSFHLGGPAVGPRGNLGAGNGNLQGPRHMQKGRVETSRVVHIMDFQRGKNLRYQLLQLVEPFGVISNHLILNKINEAFIEMATTEDAQAAVDYYTTTPALVFGKPVRVHLSQKYKRIKKPEGKPDEKFDQKQELGRVIHLSNLPHSGYSDSAVLKLAEPYGKIKNYILMRMKSQAFIEMETREDAMAMVDHCLKKALWFQGRCVKVDLSEKYKKLVLRIPNRGIDLLKKDKSRKRSYSPDGKESPSDKKSKTDGAQKTENPAEGKEQEEKSGEDGEKDTKDDQTEQEPSMLLESEDELLVDEEEAAALIESGSSVGDETDLANLGDVSSDGKKEPSDKAVKKDASATSKKKLKKVDKIEELDQENEAALENGIKNEENTEPGAESAENADDPNKDASDNSDGQNDENKEDYTIPDEYRIGPYQPNVPGGIDYVIPKTGFYCKLCSLFYTNEEVAKNTHCSSLPHYQKLKKFLNKLAEERRQKKES
3 | binds | binds | Cand1 (protein, UniProt P97536 1-1230) MASASYHISNLLEKMTSSDKDFRFMATNDLMTELQKDSIKLDDDSERKVVKMILKLLEDKNGEVQNLAVKCLGPLVSKVKEYQVETIVDTLCTNMLSDKEQLRDISSIGLKTVIGELPPASSGSALAANVCKKITGRLTSAIAKQEDVSVQLEALDIMADMLSRQGGLLVNFHPSILTCLLPQLTSPRLAVRKRTIIALGHLVMSCGNIVFVDLIEHLLSELSKNDSMSTTRTYIQCIAAISRQAGHRIGEYLEKIIPLVVKFCNVDDDELREYCIQAFESFVRRCPKEVYPHVSTIINICLKYLTYDPNYNYDDEDEDENAMDADGGDDDDQGSDDEYSDDDDMSWKVRRAAAKCLDAVVSTRHEMLPEFYKTVSPALISRFKEREENVKADVFHAYLSLLKQTRPVQSWLCDPDAMEQGETPLTMLQSQVPNIVKALHKQMKEKSVKTRQCCFNMLTELVNVLPGALTQHIPVLVPGIIFSLNDKSSSSNLKIDALSCLYVILCNHSPQVFHPHVQALVPPVVACVGDPFYKITSEALLVTQQLVKVIRPLDQPSSFDATPYIKDLFTCTIKRLKAADIDQEVKERAISCMGQIICNLGDNLGPDLSNTLQIFLERLKNEITRLTTVKALTLIAGSPLKIDLRPVLGEGVPILASFLRKNQRALKLGTLSALDILIKNYSDSLTAAMIDAVLDELPPLISESDMHVSQMAISFLTTLAKVYPSSLSKISGSILNELIGLVRSPLLQGGALSAMLDFFQALVVTGTNNLGYMDLLRMLTGPVYSQSTALTHKQSYYSIAKCVAALTRACPKEGPAVVGQFIQDVKNSRSTDSIRLLALLSLGEVGHHIDLSGQLELKSVILEAFSSPSEEVKSAASYALGSISVGNLPEYLPFVLQEITSQPKRQYLLLHSLKEIISSASVVGLKPYVENIWALLLKHCECAEEGTRNVVAECLGKLTLIDPETLLPRLKGYLISGSSYARSSVVTAVKFTISDHPQPIDPLLKNCIGDFLKTLEDPDLNVRRVALVTFNSAAHNKPSLIRDLLDSVLPHLYNETKVRKELIREVEMGPFKHTVDDGLDIRKAAFECMYTLLDSCLDRLDIFEFLNHVEDGLKDHYDIKMLTFLMLVRLSTLCPSAVLQRLDRLVEPLRATCTTKVKANSVKQEFEKQDELKRSAMRAVAALLTIPEAEKSPLMSEFQSQISSNPELAAIFESIQKDSSSTNLESMDTS
